Laboratory results published in publication PMC12696947.

Protein sequences, listed by entry. Tags and fused reporters are not part of them.
UniProt Q92585: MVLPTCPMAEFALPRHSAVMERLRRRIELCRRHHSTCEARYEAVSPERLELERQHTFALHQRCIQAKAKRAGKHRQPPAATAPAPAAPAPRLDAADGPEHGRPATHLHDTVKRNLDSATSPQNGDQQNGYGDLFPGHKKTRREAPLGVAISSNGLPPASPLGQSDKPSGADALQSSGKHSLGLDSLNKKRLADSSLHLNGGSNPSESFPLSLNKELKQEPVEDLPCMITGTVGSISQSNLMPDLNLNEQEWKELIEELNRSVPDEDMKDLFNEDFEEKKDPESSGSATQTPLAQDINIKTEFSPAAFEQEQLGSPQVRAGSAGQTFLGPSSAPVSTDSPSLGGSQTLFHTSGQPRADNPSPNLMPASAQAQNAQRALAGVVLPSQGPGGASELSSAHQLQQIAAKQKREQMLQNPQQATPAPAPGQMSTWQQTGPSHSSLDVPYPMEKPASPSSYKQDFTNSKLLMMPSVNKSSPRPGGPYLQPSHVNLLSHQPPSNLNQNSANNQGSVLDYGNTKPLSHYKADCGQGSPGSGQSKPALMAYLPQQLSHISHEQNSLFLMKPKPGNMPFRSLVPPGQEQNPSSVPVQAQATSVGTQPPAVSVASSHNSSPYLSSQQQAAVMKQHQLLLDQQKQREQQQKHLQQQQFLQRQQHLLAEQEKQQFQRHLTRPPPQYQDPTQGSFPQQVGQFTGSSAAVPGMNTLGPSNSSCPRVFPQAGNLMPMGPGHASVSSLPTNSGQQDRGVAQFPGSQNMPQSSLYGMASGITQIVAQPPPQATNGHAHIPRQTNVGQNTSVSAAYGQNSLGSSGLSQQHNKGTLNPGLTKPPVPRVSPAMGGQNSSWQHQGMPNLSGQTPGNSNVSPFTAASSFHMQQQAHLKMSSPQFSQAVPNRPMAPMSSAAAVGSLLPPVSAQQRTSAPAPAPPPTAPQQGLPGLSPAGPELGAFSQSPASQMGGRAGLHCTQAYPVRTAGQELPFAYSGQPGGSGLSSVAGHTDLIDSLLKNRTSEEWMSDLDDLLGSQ
UniProt P40763: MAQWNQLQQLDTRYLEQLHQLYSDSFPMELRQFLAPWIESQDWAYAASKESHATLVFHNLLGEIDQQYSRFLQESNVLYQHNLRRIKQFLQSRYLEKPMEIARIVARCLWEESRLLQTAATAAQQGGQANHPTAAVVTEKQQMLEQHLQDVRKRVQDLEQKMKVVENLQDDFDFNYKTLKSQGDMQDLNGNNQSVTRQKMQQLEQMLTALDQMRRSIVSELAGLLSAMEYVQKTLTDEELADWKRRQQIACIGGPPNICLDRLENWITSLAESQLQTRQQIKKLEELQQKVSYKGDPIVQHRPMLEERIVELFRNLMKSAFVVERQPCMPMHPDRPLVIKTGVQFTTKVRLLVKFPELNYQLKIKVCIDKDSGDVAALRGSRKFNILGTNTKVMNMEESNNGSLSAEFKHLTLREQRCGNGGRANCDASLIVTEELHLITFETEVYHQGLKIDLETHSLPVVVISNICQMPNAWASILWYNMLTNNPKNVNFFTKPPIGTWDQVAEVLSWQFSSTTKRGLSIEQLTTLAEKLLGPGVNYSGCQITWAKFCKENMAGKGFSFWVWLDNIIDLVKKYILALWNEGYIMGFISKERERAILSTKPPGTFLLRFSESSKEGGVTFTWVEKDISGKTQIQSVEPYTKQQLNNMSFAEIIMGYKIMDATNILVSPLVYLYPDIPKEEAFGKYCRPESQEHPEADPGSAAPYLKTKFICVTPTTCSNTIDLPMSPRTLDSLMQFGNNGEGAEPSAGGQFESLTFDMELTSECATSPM

Molecular target: MAML1 (endogenous) (human (endogenous in HepG2)) (UniProt Q92585)
Assay: affinity purification with mass spectrometry; MAML1 complex precipitated from HCC cells; precipitates digested with trypsin and chymotrypsin, LC-MS/MS, MaxQuant search

- binding: binds
Substance: STAT3 (endogenous) (from UniProt P40763 1-770)

These are yes or no findings as the source states them, for the method shown. Binding seen in cells or lysates may run through a third protein. Here binding means that the protein was enriched with, or labelled near, the bait; the list need not be complete.
